PubChem BioAssay AID652243 | Drosophila RNAi Screening Center – 2013

Purpose: 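Fly genes required for human androgen receptor driven transcription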 (primary screen)
Cells: Drosophila S2R+ cells
Reagents: long dsRNA against Drosophila genes
Time to read-out: 72 h (48 h, then 24 h hormone)
Treatment: synthetic androgen R1881 at 10 nM for 24 h
Read-out: 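Firefly light from an androgen-responsive reporter and Renilla control light per well, raw and unnormalised, for each of two replicates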
Direction: firefly reporter light: higher = more light from androgen-responsive reporter; Renilla control light: higher = more constitutive control signal (cell number, transfection)
Rule for the call: 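Across duplicate plates, a knock-down whose log firefly/Renilla ratio shifted a set fold down or up from the GFP/LacZ control mean was a hit; the downward cut appears as both 1.5 and 3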
Meaning of the calls: active = hit: reporter lowered or raised; inactive = no hit
The screen tested about 24,000 reagents; this is an unselected part of those that have a named target and a result. Over the whole deposit, 246 (1%) are marked active. 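Plates not normalised; calls are printed but the firefly/Renilla ratio behind them is not deposited; fold cut for lowering reported inconsistently.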 Raw values are not corrected between plates. A plus sign joins genes that one reagent is predicted to hit. Not given: the amount of reagent.

After knock-down of Usp47 [DRSC11313] the results were firefly reporter light, replicate 1 = 7.86e5; firefly reporter light, replicate 2 = 6.19e5; Renilla control light, replicate 1 = 1.44e6; Renilla control light, replicate 2 = 8.97e5; inactive.
With knock-down of Prosbeta2 [DRSC11257], the screen gave firefly reporter light, replicate 1 = 5.87e5; firefly reporter light, replicate 2 = 8.80e5; Renilla control light, replicate 1 = 1.18e6; Renilla control light, replicate 2 = 1.72e6; inactive.
With knock-down of CG42750 [DRSC03019], the record shows firefly reporter light, replicate 1 = 2.42e5; firefly reporter light, replicate 2 = 1.98e5; Renilla control light, replicate 1 = 2.65e6; Renilla control light, replicate 2 = 2.22e6; inactive.
CG42750 [DRSC03024] scored firefly reporter light, replicate 1 = 1.87e5; firefly reporter light, replicate 2 = 2.03e5; Renilla control light, replicate 1 = 1.62e6; Renilla control light, replicate 2 = 1.74e6; inactive.
Depletion of CG42750 [DRSC21414] came out at: firefly reporter light, replicate 1 = 5.79e5; firefly reporter light, replicate 2 = 5.51e5; Renilla control light, replicate 1 = 2.03e6; Renilla control light, replicate 2 = 1.76e6; inactive.
Against CG42750 [DRSC23218], the entry reads firefly reporter light, replicate 1 = 2.58e5; firefly reporter light, replicate 2 = 3.66e5; Renilla control light, replicate 1 = 9.18e5; Renilla control light, replicate 2 = 1.12e6; inactive.
Against CG42750 [DRSC28148] the deposit lists firefly reporter light, replicate 1 = 3.04e5; firefly reporter light, replicate 2 = 2.50e5; Renilla control light, replicate 1 = 1.62e6; Renilla control light, replicate 2 = 1.32e6; inactive.
CG42750 [DRSC28791] gave firefly reporter light, replicate 1 = 4.41e5; firefly reporter light, replicate 2 = 4.15e5; Renilla control light, replicate 1 = 1.19e6; Renilla control light, replicate 2 = 1.30e6; inactive.
With knock-down of CG5541 [DRSC19946], the screen gave firefly reporter light, replicate 1 = 84008; firefly reporter light, replicate 2 = 1.44e5; Renilla control light, replicate 1 = 8.99e5; Renilla control light, replicate 2 = 1.11e6; inactive.
Against CG33923 [DRSC37808], the values are firefly reporter light, replicate 1 = 9.25e5; firefly reporter light, replicate 2 = 6.42e5; Renilla control light, replicate 1 = 2.07e6; Renilla control light, replicate 2 = 1.67e6; inactive.
After knock-down of CG13724 [DRSC10053], the screen gave firefly reporter light, replicate 1 = 2.83e5; firefly reporter light, replicate 2 = 1.58e5; Renilla control light, replicate 1 = 1.94e6; Renilla control light, replicate 2 = 1.31e6; inactive.
With knock-down of CG13724 [DRSC25395], the screen gave firefly reporter light, replicate 1 = 1.04e6; firefly reporter light, replicate 2 = 1.34e6; Renilla control light, replicate 1 = 7.93e5; Renilla control light, replicate 2 = 8.29e5; inactive.

Limited to “Renilla control light, replicate 2” (2 entries from above):
CG42750 [DRSC23218]: 1.12e6
CG42750 [DRSC28148]: 1.32e6

The listing continues:
Against CG30197 [DRSC22394], the entry reads firefly reporter light, replicate 1 = 4.22e5; firefly reporter light, replicate 2 = 7.12e5; Renilla control light, replicate 1 = 1.53e6; Renilla control light, replicate 2 = 2.37e6; inactive.
Phf7 [DRSC23523] scored firefly reporter light, replicate 1 = 7.02e5; firefly reporter light, replicate 2 = 7.82e5; Renilla control light, replicate 1 = 1.00e6; Renilla control light, replicate 2 = 1.00e6; inactive.
After knock-down of vimar [DRSC05026] the results were firefly reporter light, replicate 1 = 9.12e5; firefly reporter light, replicate 2 = 6.07e5; Renilla control light, replicate 1 = 1.65e6; Renilla control light, replicate 2 = 1.78e6; inactive.
Knock-down of CG9269 [DRSC16465] gave: firefly reporter light, replicate 1 = 1.62e5; firefly reporter light, replicate 2 = 1.31e5; Renilla control light, replicate 1 = 2.25e6; Renilla control light, replicate 2 = 1.24e6; inactive.
Silencing of CG40160 + CR41243 [DRSC38711] gave: firefly reporter light, replicate 1 = 9.25e5; firefly reporter light, replicate 2 = 6.10e5; Renilla control light, replicate 1 = 2.18e6; Renilla control light, replicate 2 = 1.80e6; inactive.
CG1571 [DRSC18068] gave firefly reporter light, replicate 1 = 4.98e5; firefly reporter light, replicate 2 = 4.97e5; Renilla control light, replicate 1 = 1.99e6; Renilla control light, replicate 2 = 2.50e6; inactive.
For UbcE2M [DRSC10828], the entry reads firefly reporter light, replicate 1 = 1.15e6; firefly reporter light, replicate 2 = 1.02e6; Renilla control light, replicate 1 = 1.32e6; Renilla control light, replicate 2 = 2.02e6; inactive.
After knock-down of RanBPM [DRSC06079], the record shows firefly reporter light, replicate 1 = 2.95e5; firefly reporter light, replicate 2 = 4.00e5; Renilla control light, replicate 1 = 1.13e6; Renilla control light, replicate 2 = 9.65e5; inactive.
After knock-down of RanBPM [DRSC25174] the results were firefly reporter light, replicate 1 = 7.67e5; firefly reporter light, replicate 2 = 1.19e6; Renilla control light, replicate 1 = 1.09e6; Renilla control light, replicate 2 = 1.21e6; inactive.
